According to PubChem BioAssay AID330 (DTP/NCI, 2004):
The list does not hold the whole screen: it gathers some chemical classes. Not every dose and run of a compound is shown. T/C gives the treated animals as a percentage of the vehicle group. For survival time, this PubChem deposit counts one and a half times the control or more as active, and values a quarter to a half above the control carry no call in these data; other NCI protocols may use other cut-offs. Schedule codes are those of the source, read here as Q, the interval in days (D) or hours (H), X, the number of doses. Some T/C values are marked as having no survivor count here; that says nothing about deaths at the dose. Some doses were run more than once; the results are listed from low to high.

Tested on: P388 leukemia ip, CD2F1 mice, survival T/C
Assay: NCI In Vivo Anticancer Drug Screen. Data for tumor model P388 Leukemia (intraperitoneal) in CD2F1 (CDF1) mice
Conditions: T/C endpoint: median survival time, higher T/C = longer survival
[1] = dose: 6.25 mg/kg/injection, schedule: Q01DX009 (ip), vehicle: saline
[2] = dose: 12.5 mg/kg/injection, schedule: Q01DX009 (ip), vehicle: saline
[3] = dose: 100.0 mg/kg/injection, schedule: Q04DX003 (ip), vehicle: saline with Tween-80
[4] = dose: 200.0 mg/kg/injection, schedule: Q04DX003 (ip), vehicle: saline with Tween-80

For CCN1CCCC(OC(=O)C(O)(c2ccccc2)C2CCCC2)C1 (configuration not stated), the T/C (dose: 50.0 mg/kg/injection, schedule: Q01DX009 (ip), vehicle: Klucel (hydroxypropylcellulose) (HPC)) was 106 % of control [survivor count not shown], the T/C (dose: 100.0 mg/kg/injection, schedule: Q01DX009 (ip), vehicle: Klucel (hydroxypropylcellulose) (HPC)) was 109 % of control [survivor count not shown] and the T/C (dose: 200.0 mg/kg/injection, schedule: Q01DX009 (ip), vehicle: Klucel (hydroxypropylcellulose) (HPC)) was 111 % of control [survivor count not shown].

ClCCNCCCNCCCl was tested, and the T/C [1] was 109 [survivor count not shown] and 118 % of control [survivor count not shown], the T/C [2] was 118 [survivor count not shown] and 145 % of control [survivor count not shown] and the T/C (dose: 16.5 mg/kg/injection, schedule: Q01DX009 (ip), vehicle: saline) was 145 % of control [survivor count not shown]. The T/C (dose: 25.0 mg/kg/injection, schedule: Q01DX009 (ip), vehicle: saline) was 163 [survivor count not shown], 181 [survivor count not shown], 218 % of control [survivor count not shown], the T/C (dose: 37.5 mg/kg/injection, schedule: Q01DX009 (ip), vehicle: saline) was 195 % of control [survivor count not shown] and the T/C (dose: 50.0 mg/kg/injection, schedule: Q01DX009 (ip), vehicle: saline) was 122 % of control [survivor count not shown]. For the same compound, the T/C [3] was 104 % of control [survivor count not shown] and the T/C [4] was 86 % of control [survivor count not shown].

CC(=O)CI was tested, and the T/C (dose: 60.0 mg/kg/injection, schedule: Q01DX005 (ip), vehicle: saline with Tween-80) was 98 % of control and the T/C (dose: 120.0 mg/kg/injection, schedule: Q01DX005 (ip), vehicle: saline with Tween-80) was 98 % of control.

CC(COC(=O)C(O)(c1ccccc1)c1ccccc1)N1CCCCCCCC1 (configuration not stated) was tested, and the T/C (dose: 50.0 mg/kg/injection, schedule: Q04DX003 (ip), vehicle: saline with Tween-80) was 107 % of control [survivor count not shown], the T/C [3] was 108 % of control [survivor count not shown] and the T/C [4] was 110 % of control [survivor count not shown]. The T/C (dose: 400.0 mg/kg/injection, schedule: Q04DX003 (ip), vehicle: saline with Tween-80) was 124 % of control [survivor count not shown].

With Cc1cc2nc(CN(CCCl)CCCl)[nH]c2cc1C the T/C (dose: 0.63 mg/kg/injection, schedule: Q04DX003 (ip), vehicle: saline) was 113 % of control [survivor count not shown], the T/C (dose: 1.25 mg/kg/injection, schedule: Q04DX003 (ip), vehicle: saline) was 113 % of control [survivor count not shown] and the T/C (dose: 2.5 mg/kg/injection, schedule: Q04DX003 (ip), vehicle: saline) was 127 % of control [survivor count not shown]. The T/C (dose: 3.13 mg/kg/injection, schedule: Q01DX009 (ip), vehicle: saline) was 181 % of control [survivor count not shown], the T/C (dose: 5.0 mg/kg/injection, schedule: Q04DX003 (ip), vehicle: saline with Tween-80) was 142 % of control [survivor count not shown] and the T/C [1] was 204 % of control [survivor count not shown]. The T/C (dose: 10.0 mg/kg/injection, schedule: Q04DX003 (ip), vehicle: saline with Tween-80) was 166 % of control [survivor count not shown], the T/C [2] was 100 % of control [survivor count not shown] and the T/C (dose: 12.5 mg/kg/injection, schedule: Q04DX003 (ip), vehicle: saline with Tween-80) was 181 % of control [survivor count not shown]. The T/C (dose: 16.5 mg/kg/injection, schedule: Q04DX003 (ip), vehicle: saline with Tween-80) was 236 % of control [survivor count not shown], the T/C (dose: 20.0 mg/kg/injection, schedule: Q04DX003 (ip), vehicle: saline with Tween-80) was 285 % of control [survivor count not shown] and the T/C (dose: 25.0 mg/kg/injection, schedule: Q04DX003 (ip), vehicle: saline with Tween-80) was 159 [survivor count not shown] and 245 % of control [survivor count not shown]. The T/C (dose: 37.5 mg/kg/injection, schedule: Q04DX003 (ip), vehicle: saline with Tween-80) was 90 % of control [survivor count not shown].

For ClCCN(CCCl)C1CCc2ccccc2C1 (configuration not stated), the T/C (dose: 0.39 mg/kg/injection, schedule: Q01DX009 (ip), vehicle: Klucel (hydroxypropylcellulose) (HPC)) was 143 % of control [survivor count not shown], the T/C (dose: 0.78 mg/kg/injection, schedule: Q01DX009 (ip), vehicle: Klucel (hydroxypropylcellulose) (HPC)) was 121 [survivor count not shown] and 127 % of control [survivor count not shown] and the T/C (dose: 1.56 mg/kg/injection, schedule: Q01DX009 (ip), vehicle: Klucel (hydroxypropylcellulose) (HPC)) was 140 [survivor count not shown] and 161 % of control [survivor count not shown]. The T/C (dose: 3.13 mg/kg/injection, schedule: Q01DX009 (ip), vehicle: Klucel (hydroxypropylcellulose) (HPC)) was 160 [survivor count not shown] and 168 % of control [survivor count not shown].

With C/C=C\C(O)(C(=O)OC1CN2CCC1CC2)c1ccccc1 (configuration not stated) the T/C (dose: 100.0 mg/kg/injection, schedule: Q01DX001 (ip), vehicle: saline) was 95 % of control [survivor count not shown], the T/C (dose: 200.0 mg/kg/injection, schedule: Q01DX001 (ip), vehicle: saline) was 92 % of control [survivor count not shown] and the T/C (dose: 400.0 mg/kg/injection, schedule: Q01DX001 (ip), vehicle: saline) was 100 % of control [survivor count not shown].

With ClCCN(CCCl)C12CC3CC(CC(C3)C1)C2 the T/C (dose: 0.33 mg/kg/injection, schedule: Q01DX009 (ip), vehicle: Klucel (hydroxypropylcellulose) (HPC)) was 117 % of control [survivor count not shown], the T/C (dose: 0.66 mg/kg/injection, schedule: Q01DX009 (ip), vehicle: Klucel (hydroxypropylcellulose) (HPC)) was 131 % of control [survivor count not shown] and the T/C (dose: 1.0 mg/kg/injection, schedule: Q01DX009 (ip), vehicle: Klucel (hydroxypropylcellulose) (HPC)) was 158 % of control [survivor count not shown]. The T/C (dose: 1.5 mg/kg/injection, schedule: Q01DX009 (ip), vehicle: Klucel (hydroxypropylcellulose) (HPC)) was 174 % of control [survivor count not shown] and the T/C (dose: 2.0 mg/kg/injection, schedule: Q01DX009 (ip), vehicle: Klucel (hydroxypropylcellulose) (HPC)) was 91 % of control [survivor count not shown].

In the case of CC(C)C(O)(C(=O)OCC1=CCC2CCC1N2C)c1ccccc1 (configuration not stated), the T/C (dose: 6.25 mg/kg/injection, schedule: Q04DX002 (ip), vehicle: saline, evaluated on day 30) is reported as 99 % of control, the T/C (dose: 6.25 mg/kg/injection, schedule: Q04DX002 (ip), vehicle: saline, evaluation day not shown) is reported as 100 % of control [survivor count not shown] and the T/C (dose: 12.5 mg/kg/injection, schedule: Q04DX002 (ip), vehicle: saline, evaluated on day 30) is reported as 100 % of control. For the same compound, the T/C (dose: 12.5 mg/kg/injection, schedule: Q04DX002 (ip), vehicle: saline, evaluation day not shown) was 100 [survivor count not shown] and 114 % of control [survivor count not shown], the T/C (dose: 25.0 mg/kg/injection, schedule: Q04DX002 (ip), vehicle: saline, evaluated on day 30) was 90 % of control and the T/C (dose: 25.0 mg/kg/injection, schedule: Q04DX002 (ip), vehicle: saline, evaluation day not shown) was 100 [survivor count not shown] and 123 % of control [survivor count not shown]. The T/C (dose: 50.0 mg/kg/injection, schedule: Q04DX002 (ip), vehicle: saline, evaluated on day 30) was 99 % of control and the T/C (dose: 50.0 mg/kg/injection, schedule: Q04DX002 (ip), vehicle: saline, evaluation day not shown) was 95 [survivor count not shown] and 97 % of control [survivor count not shown].

C#CCN(CCCl)CCCl was tested, and the T/C (dose: 1.0 mg/kg/injection, schedule: Q01DX009 (ip), vehicle: saline with Tween-80) was 168 % of control [survivor count not shown], the T/C (dose: 2.0 mg/kg/injection, schedule: Q01DX009 (ip), vehicle: saline with Tween-80) was 222 % of control [survivor count not shown] and the T/C (dose: 4.0 mg/kg/injection, schedule: Q01DX009 (ip), vehicle: saline with Tween-80) was 90 % of control [survivor count not shown]. For the same compound, the T/C (dose: 4.0 mg/kg/injection, schedule: Q01DX009 (ip), vehicle: saline) was 186 % of control [survivor count not shown], the T/C (dose: 8.0 mg/kg/injection, schedule: Q01DX009 (ip), vehicle: saline) was 86 % of control [survivor count not shown] and the T/C (dose: 8.0 mg/kg/injection, schedule: Q04DX003 (ip), vehicle: saline) was 168 % of control [survivor count not shown]. The T/C (dose: 16.0 mg/kg/injection, schedule: Q04DX003 (ip), vehicle: saline) was 90 % of control [survivor count not shown].
